Earlier results in US6127355A (priority 1999, dated 2000).

Conditions: in words, background; cited from earlier work

SMILES	water solubility
CC[C@@]1(O)C(=O)OCc2c1cc1n(c2=O)Cc2cc3ccccc3nc2-1 [Camptothecin, reference compound]	water-insoluble
CC(=O)O[C@H]1C(=O)[C@@]2(C)[C@H]([C@H](OC(=O)c3ccccc3)[C@]3(O)C[C@H](OC(=O)[C@H](O)[C@@H](NC(=O)c4ccccc4)c4ccccc4)C(C)=C1C3(C)C)[C@]1(OC(C)=O)CO[C@@H]1C[C@@H]2O [paclitaxel]	insoluble in water
